Here are results for 19 molecules from the supplement of paper PMC12889115.

This assay relates to Salmonella enterica serovar Typhimurium SL1344. As to the kind of experiment: bacterial growth OD600 after 18 h with compound and polymyxin B; higher = more bacterial growth (less inhibition). As to conditions: 50 µM, Mueller-Hinton broth.

The list shows a part of the results. Values are raw readings; no control value is given beside them.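 Primary screen: polymyxin B was added at a level permeabilizing Salmonella outer membranes while sparing inner membranes. DMSO wells, both with and without polymyxin B, established maximum growth. Plate-to-plate variation meant each plate was ranked on its own, and the lowest-OD600 compounds were selected as hits.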

As for `O=C1CCC(CCC(=O)N(CC2CCC2)CC2CCCO2)(Cc2ccc(Cl)cc2)N1` (centres undefined), the “bacterial growth OD600” value (polymyxin B 0.75 µg/mL) worked out at 0.863.
With `COc1ccc(-c2noc(CN3CCC(OCc4ccccc4)CC3)n2)cc1`, for the setting “polymyxin B 1 µg/mL”, the “bacterial growth OD600” value turned out to be 0.948.
As for `CSc1ccc(CC2(CCC(=O)NCc3cccc(Cl)c3)CCC(=O)N2)cc1` (centres undefined), the “bacterial growth OD600” value (polymyxin B 0.75 µg/mL) was 0.726.
Still for that read-out and setting: next, `Cc1c(C(=O)NCC2COc3ccccc3O2)cnn1-c1ncc2c(n1)-c1ccccc1CCC2` (centres undefined): 0.006; `CCOC(=O)N1CCN(C(=O)CC2(c3ccccc3OC)CC(=O)N(CCCOC)C2=O)CC1` (centres undefined): 0.896.
The same measure, in the same setting: the result for `CCNC(=O)C1CCN(C2CCN(CCCc3ccccc3)CC2)CC1` reads 0.833; that for `Cc1ccc2c(c1)CN(CC(=O)N1CCC(O)(c3ccccn3)CC1)CC(c1ccsc1)O2` (centres undefined), 0.861.
Still for that read-out and setting: the result for `CCOC(=O)N1CCN(C(=O)c2ccc(N3CCC(N[C@H]4CCCCNC4=O)CC3)cc2)CC1` reads 0.838.
With `Cc1ncc2c(c1CNC(=O)Cc1cccs1)CCN(C(=O)c1ccc(N3CCCC3=O)cc1)C2`, the “bacterial growth OD600” value (polymyxin B 0.75 µg/mL) was 0.814.
On the same count and under the same terms, next, `CCCn1cc([C@@H]2C[C@H]3CN(Cc4cccc(Cl)c4)C(=O)[C@]34CCCN24)c(C)n1`: 0.687.
Still for that read-out and setting: the result for `COc1ccc(CC(=O)Nc2ccc(N3CCC(NCC(C)(C)CO)CC3)cc2)cc1` reads 0.877.
With `COC(=O)CN(C)C(=O)CC(c1ccccc1)c1ccc2c(c1)OCO2` (centres undefined), the “bacterial growth OD600” value (polymyxin B 1 µg/mL) was 0.691.
On the same count and under the same terms, the result for `CN(Cc1ccccc1)c1ncccc1CNC(=O)C[C@@H]1C[C@@H]2C=C[C@H]1C2` reads 0.493; that for `O=C1CC(NC2CCCC2)CN1Cc1ccccc1C(F)(F)F` (centres undefined), 0.918.
For `COc1ccc(CN2CCc3c(C(=O)NCc4ccccc4OC)c(OC)cc(=O)n3CC2)cc1C`, the “bacterial growth OD600” value (polymyxin B 0.75 µg/mL) amounted to 0.867.
On the same count and under the same terms, the result for `CN(Cc1ccc2nccnc2c1)C(=O)CC1(c2ccc(-c3ccccc3)cc2)CC(=O)N(C)C1=O` (centres undefined) reads 0.001; that for `O=C(CCc1ccco1)N1CCC(C2CCN(c3ncccn3)CC2)C1` (centres undefined), 0.824.
`COc1cccc(CNC(=O)CCC2CCCN(C(=O)c3ccc(CSC)o3)C2)c1` (centres undefined): the “bacterial growth OD600” value (polymyxin B 1 µg/mL) worked out at 0.965.
On the same count and under the same terms, next, `CC(Cc1cnccn1)NC(=O)c1coc(COc2ccccc2)n1` (centres undefined): 0.922.
